Data taken from PubChem BioAssay AID1159506, deposited by NCATS (2015).

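Genome-wide siRNA knockdown in TC32 Ewing sarcoma cells, comparing luciferase light from an NR0B1-promoter reporter with a CMV-promoter reporter 48 hours after transfection.
Each siRNA was applied at 20 nM.
A z-score of the log NR0B1-over-CMV signal, less the median of siRNAs with the same seed; more negative means a stronger specific loss of the NR0B1 reporter.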

The strongest results of the screen are mostly left out here.
Sequences are the guide (antisense) strand, without overhang.

- UUGAUUAGCUGGUAGAUGG against PIK3C2G : seed-corrected z-score 0.05536
- AUAGUAUAGGGAGUGUAUC against NXF3 : seed-corrected z-score 0.3444
- UUUCCUGUCCUUAAUAUCC against RAN : seed-corrected z-score -1.292
- UCUCAGUUGAUGGAGGUCC against LRRC3B : seed-corrected z-score 0.333
- UCUUCGUCAUUAGAGCUGC against UNC80 : seed-corrected z-score 0.3001
- AUUUGCUUUCGUGUUCCUC against GOLGA8A : seed-corrected z-score -0.003318
- UCUGAGUCCAUAUAGAUGU against PCTP : seed-corrected z-score 0.4998
- AAACAUGCACUUGUUGGGC against GLIS1 : seed-corrected z-score 0.2035
- UGUUUAUUAAGGGCCUACG against PSCA : seed-corrected z-score -0.6195
- UUUCGUUUUACAAAGGUCC against MMEL1 : seed-corrected z-score 0.3477
- UCAGUUAACAGAACUUCUU against CAMKMT : seed-corrected z-score 0.8965
- UAUUCUUUAGCUCAACAGG against RSPH9 : seed-corrected z-score -0.03419
- UUCGAGUAGAUCCACAGGG against RTN4RL1 : seed-corrected z-score -0.2516
- UUGGAUACAGGAUCCAUUG against TNFAIP6 : seed-corrected z-score -0.2258
- UUCCGGCUCAUAUUCCUCC against MAP1B : seed-corrected z-score 0.1466
- UUCUCGAAGAAUAUCUUGG against CADPS2 : seed-corrected z-score 0.006254
- UAGCGAUCAAUGCACAGGA against HRH1 : seed-corrected z-score -0.1126
- UAACCGGUUGGUAUAAGGC against PKNOX2 : seed-corrected z-score 0.3708
- UUGUAGUCAAGCAGCAUGC against ASB4 : seed-corrected z-score -0.7608
- UGUUCAAUAAGGUAAGCAC against ZFP2 : seed-corrected z-score 1.162
- UAAGUUGUAACAAAAGCUC against KLF6 : seed-corrected z-score -0.3574
- AGAGAUACUAGGAUUGACC against NCOA1 : seed-corrected z-score -0.07119
- UAUCUAAUGGAAGGCAUUC against TRMT10C : seed-corrected z-score -0.01266
- UGUGGUUCGUUCUUCACCU against HMGN2P20 : seed-corrected z-score -1.922
- UCCUUUACCACGAAGUUCA against LZTR1 : seed-corrected z-score -0.5311
- AGUCGAUACACUGGAAGCC against TNFRSF18 : seed-corrected z-score 0.09003